Laboratory results as given in paper PMC7055300, “Theileria parasites subvert E2F signaling to stimulate leukocyte proliferation” (Scientific Reports, 2020).
Results are given in words; binding and its absence hold for the method and conditions named. Binding calls can cover weak binding; strength is not graded here. For some assays here: In cells and extracts the contact can be indirect.

Sequences of proteins named here, by UniProt entry; tags and fusion partners are left off. A change or cut given only in a name is not applied to a line headed by its entry.
UniProt Q08E68: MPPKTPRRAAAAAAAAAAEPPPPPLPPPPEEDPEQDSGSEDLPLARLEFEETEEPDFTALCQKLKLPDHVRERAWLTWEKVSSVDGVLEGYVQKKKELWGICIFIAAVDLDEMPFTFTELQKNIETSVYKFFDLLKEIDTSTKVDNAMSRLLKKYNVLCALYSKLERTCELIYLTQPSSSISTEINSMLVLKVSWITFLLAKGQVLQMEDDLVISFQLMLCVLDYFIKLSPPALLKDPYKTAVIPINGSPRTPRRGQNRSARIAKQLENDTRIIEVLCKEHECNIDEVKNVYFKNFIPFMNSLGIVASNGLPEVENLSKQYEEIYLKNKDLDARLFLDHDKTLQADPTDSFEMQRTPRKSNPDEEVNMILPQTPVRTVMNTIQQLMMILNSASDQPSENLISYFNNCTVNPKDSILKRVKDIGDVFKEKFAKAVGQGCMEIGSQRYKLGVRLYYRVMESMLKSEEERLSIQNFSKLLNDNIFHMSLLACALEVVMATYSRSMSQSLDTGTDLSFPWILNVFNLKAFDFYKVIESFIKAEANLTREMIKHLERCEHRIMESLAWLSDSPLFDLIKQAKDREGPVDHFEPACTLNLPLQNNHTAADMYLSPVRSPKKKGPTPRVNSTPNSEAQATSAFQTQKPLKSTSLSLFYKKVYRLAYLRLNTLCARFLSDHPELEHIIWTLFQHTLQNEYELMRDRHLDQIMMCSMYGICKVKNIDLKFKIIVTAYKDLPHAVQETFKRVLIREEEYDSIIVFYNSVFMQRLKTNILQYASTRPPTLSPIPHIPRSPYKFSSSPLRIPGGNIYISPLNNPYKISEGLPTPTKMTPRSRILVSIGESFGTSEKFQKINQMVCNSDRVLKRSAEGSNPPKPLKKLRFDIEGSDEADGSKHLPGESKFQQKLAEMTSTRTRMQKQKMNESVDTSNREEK
UniProt P06400: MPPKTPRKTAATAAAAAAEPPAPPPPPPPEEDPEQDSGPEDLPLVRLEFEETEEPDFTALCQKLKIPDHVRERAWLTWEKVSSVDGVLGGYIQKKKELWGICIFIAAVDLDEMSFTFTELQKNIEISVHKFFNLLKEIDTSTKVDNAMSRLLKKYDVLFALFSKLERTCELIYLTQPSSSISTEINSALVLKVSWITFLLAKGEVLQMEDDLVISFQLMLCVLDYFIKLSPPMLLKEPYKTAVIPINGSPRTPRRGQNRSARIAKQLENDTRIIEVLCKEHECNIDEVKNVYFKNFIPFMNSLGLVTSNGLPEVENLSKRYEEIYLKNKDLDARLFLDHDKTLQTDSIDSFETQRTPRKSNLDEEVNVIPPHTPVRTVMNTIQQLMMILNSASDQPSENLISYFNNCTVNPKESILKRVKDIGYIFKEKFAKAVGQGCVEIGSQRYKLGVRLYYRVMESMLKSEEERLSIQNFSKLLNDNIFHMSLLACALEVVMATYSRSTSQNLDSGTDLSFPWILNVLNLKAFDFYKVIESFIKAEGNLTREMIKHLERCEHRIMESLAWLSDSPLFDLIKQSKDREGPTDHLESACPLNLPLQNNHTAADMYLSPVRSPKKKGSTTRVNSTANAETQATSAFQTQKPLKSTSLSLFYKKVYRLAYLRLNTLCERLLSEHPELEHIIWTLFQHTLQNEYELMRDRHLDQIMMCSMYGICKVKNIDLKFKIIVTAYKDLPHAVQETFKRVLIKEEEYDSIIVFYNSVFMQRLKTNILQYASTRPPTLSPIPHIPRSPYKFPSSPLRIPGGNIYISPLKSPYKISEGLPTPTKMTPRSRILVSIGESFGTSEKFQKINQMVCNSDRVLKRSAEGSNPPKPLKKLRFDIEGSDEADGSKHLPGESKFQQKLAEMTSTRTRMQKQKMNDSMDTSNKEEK
UniProt Q32PJ8: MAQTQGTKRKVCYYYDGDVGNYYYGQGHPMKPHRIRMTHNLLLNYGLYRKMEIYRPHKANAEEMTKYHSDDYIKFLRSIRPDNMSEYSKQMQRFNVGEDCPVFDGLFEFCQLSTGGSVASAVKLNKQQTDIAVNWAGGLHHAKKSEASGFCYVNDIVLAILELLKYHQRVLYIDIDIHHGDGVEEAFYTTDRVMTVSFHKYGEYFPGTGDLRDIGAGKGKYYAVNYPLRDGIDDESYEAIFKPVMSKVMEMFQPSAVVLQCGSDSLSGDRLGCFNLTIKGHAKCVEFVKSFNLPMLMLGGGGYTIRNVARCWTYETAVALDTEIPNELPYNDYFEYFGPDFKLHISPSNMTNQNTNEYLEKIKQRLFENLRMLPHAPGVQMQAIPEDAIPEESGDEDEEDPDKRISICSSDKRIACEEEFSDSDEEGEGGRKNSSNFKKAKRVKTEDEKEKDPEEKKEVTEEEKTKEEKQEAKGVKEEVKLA
UniProt Q13547: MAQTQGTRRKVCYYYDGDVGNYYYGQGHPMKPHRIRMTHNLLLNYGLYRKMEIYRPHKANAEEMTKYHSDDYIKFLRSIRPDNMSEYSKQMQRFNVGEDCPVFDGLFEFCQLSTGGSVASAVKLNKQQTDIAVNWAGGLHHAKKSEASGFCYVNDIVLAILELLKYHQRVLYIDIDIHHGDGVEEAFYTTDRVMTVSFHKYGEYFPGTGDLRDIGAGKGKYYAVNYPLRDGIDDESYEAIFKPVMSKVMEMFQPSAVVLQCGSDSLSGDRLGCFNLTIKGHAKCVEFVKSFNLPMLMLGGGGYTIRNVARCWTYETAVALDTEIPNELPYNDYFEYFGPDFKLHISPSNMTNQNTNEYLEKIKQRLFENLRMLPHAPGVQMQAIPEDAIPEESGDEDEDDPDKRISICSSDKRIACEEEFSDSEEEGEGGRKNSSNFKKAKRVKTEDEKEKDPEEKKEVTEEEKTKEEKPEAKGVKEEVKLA

Experiments:
[1] = target: RB, endogenous in bovine leukocyte lines (bovine (endogenous in BL20 and TBL20)) (UniProt Q08E68); assay: co-IP; RB immunoprecipitates from uninfected BL20 and T. annulata-infected TBL20 cells, blotted for HDAC1; endogenous proteins
[2] = target: human Retinoblastoma-1 (RB) pocket domain (human) (UniProt P06400); assay: SPR; human RB immobilised on a CM5 chip by amine coupling (about 2000 RU); analytes 0–25 µM in HBS-EP (10 mM Hepes, 150 mM NaCl, 3 mM EDTA, 0.05% P20, pH 7.4), 30 µl per minute, 25 °C, Biacore T200; data fitted to the steady state affinity; both purified

Row | binding [1] | binding [2] | Substance
1 | binds | – | HDAC1, endogenous in bovine leukocyte lines (from UniProt Q32PJ8 1-482)
2 | – | binds | full-length HDAC1, purified, recombinant (from UniProt Q13547 1-482)
